# Reference: the supplement of paper PMC10849652
# By UniProt entry, the sequences of proteins in these tests, tags left out. Where a name states a change or a piece, a line headed by the entry shows the natural chain unless it says otherwise.
# UniProt Q99733: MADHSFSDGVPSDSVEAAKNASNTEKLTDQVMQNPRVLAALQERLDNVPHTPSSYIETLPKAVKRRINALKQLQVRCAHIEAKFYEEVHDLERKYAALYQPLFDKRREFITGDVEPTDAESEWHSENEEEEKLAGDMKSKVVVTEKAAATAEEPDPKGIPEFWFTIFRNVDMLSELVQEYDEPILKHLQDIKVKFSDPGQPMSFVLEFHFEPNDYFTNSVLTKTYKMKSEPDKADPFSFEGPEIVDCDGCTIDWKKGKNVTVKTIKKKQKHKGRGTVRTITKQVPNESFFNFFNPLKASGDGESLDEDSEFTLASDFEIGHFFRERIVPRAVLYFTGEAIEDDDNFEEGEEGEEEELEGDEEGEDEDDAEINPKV
# UniProt Q6N069: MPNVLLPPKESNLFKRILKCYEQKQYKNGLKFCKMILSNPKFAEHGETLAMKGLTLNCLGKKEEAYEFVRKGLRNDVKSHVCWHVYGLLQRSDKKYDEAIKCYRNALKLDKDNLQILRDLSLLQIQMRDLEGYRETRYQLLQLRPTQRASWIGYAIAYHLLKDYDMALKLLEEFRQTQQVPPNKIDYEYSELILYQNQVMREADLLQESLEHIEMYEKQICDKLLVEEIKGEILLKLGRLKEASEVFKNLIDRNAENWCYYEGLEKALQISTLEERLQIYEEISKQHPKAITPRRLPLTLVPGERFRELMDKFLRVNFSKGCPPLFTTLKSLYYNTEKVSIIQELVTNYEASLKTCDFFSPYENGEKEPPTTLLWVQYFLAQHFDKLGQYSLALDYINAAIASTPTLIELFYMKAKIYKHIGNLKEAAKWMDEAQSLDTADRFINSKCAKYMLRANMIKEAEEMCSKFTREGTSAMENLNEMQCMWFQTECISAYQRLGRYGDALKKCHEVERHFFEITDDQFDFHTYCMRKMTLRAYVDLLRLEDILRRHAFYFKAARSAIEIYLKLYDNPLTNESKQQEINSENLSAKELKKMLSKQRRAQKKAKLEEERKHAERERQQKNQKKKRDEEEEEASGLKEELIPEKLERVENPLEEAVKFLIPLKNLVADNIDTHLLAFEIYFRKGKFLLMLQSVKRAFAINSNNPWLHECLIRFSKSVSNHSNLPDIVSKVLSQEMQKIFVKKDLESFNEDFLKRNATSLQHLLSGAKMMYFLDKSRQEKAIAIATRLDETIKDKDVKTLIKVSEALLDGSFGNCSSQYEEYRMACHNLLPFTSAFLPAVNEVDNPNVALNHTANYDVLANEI
# UniProt Q9UN36: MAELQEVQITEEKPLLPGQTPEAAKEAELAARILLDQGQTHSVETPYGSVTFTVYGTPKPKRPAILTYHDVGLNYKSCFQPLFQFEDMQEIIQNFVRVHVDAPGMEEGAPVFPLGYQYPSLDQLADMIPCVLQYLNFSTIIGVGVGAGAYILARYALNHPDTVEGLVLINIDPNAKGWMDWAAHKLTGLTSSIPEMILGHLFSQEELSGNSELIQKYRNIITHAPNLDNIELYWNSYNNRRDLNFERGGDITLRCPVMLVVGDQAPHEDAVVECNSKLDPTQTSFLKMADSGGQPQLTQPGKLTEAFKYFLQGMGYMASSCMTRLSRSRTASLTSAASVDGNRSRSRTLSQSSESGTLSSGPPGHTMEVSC
# UniProt P62166, whole entry, looked up: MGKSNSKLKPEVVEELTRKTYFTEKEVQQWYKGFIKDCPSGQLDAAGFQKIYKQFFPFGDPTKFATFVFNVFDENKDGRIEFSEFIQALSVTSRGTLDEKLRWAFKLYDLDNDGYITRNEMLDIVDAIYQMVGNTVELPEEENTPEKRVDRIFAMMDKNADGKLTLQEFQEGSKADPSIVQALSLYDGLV
# UniProt Q9H0A0: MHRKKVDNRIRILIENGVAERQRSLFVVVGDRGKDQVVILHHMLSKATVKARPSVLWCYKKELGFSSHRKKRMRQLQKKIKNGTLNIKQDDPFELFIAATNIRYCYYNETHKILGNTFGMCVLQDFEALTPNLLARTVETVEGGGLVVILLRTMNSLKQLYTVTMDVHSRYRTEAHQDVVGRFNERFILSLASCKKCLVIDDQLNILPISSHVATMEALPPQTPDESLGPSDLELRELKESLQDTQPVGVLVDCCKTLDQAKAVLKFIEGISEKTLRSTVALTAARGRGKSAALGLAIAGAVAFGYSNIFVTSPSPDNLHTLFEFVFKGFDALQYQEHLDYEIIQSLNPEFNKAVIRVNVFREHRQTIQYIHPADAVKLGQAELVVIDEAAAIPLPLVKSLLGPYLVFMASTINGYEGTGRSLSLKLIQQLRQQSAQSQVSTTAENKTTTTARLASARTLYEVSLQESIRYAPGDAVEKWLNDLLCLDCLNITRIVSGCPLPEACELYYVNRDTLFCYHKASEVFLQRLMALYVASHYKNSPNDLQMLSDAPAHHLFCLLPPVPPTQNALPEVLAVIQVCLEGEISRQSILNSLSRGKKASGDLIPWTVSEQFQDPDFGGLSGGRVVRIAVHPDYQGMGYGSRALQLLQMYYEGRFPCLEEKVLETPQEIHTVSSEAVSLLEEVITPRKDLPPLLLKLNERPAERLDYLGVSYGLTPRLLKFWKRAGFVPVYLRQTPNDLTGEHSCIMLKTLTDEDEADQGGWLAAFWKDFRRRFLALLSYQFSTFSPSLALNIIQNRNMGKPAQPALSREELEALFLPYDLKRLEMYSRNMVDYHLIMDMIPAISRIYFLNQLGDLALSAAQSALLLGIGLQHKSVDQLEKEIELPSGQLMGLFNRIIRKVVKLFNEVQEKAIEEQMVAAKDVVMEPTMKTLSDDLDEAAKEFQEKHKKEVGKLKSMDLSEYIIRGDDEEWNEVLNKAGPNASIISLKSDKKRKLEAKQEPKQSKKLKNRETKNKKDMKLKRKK
# UniProt Q15003, whole entry, looked up: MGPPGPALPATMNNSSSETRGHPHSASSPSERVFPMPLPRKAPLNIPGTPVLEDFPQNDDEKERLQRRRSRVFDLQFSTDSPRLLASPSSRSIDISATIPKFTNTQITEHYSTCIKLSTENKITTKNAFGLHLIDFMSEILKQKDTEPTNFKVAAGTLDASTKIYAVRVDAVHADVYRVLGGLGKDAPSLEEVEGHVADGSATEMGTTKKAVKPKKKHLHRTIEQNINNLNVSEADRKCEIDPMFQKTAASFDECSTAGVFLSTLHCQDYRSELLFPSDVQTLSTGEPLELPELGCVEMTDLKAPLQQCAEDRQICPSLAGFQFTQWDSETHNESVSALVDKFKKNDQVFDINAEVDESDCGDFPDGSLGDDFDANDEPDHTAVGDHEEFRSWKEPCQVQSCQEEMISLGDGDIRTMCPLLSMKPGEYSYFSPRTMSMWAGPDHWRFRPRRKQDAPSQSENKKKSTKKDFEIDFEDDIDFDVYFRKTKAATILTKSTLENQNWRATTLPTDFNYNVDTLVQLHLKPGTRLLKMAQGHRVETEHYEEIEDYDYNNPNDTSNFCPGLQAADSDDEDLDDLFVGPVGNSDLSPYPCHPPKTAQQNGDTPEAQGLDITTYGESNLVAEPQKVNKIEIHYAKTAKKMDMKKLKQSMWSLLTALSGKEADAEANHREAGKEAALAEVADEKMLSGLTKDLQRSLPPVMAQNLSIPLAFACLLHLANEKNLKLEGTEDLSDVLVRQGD
# UniProt Q9NR45: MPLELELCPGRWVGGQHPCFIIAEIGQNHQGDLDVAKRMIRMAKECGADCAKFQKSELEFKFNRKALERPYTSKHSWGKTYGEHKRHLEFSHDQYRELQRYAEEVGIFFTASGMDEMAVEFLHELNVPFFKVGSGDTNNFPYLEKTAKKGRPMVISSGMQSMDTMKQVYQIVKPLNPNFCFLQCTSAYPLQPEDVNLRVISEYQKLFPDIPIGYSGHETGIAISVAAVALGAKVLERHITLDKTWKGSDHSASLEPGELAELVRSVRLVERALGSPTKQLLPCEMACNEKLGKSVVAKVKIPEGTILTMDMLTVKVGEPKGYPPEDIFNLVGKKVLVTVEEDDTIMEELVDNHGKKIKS
# UniProt P49321, whole entry, looked up: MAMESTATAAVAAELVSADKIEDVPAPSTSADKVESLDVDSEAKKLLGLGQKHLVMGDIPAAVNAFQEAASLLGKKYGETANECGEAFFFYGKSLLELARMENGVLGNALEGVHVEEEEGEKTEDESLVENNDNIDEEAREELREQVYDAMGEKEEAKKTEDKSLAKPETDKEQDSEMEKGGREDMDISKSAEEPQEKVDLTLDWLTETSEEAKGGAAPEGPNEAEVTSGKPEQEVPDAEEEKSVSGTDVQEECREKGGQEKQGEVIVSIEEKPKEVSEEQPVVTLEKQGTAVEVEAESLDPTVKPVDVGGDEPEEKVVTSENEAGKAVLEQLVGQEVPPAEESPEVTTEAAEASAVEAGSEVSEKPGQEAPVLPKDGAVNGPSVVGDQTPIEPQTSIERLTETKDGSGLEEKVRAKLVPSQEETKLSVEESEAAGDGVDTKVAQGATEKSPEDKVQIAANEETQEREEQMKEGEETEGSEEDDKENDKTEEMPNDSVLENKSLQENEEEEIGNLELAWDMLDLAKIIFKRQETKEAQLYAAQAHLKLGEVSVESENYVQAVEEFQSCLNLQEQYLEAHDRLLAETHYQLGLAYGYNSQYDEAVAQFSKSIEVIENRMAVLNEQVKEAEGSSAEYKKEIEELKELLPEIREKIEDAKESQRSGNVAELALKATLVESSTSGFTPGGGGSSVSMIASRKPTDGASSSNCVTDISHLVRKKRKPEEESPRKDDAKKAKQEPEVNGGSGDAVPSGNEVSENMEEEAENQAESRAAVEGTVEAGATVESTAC
# The other results are listed elsewhere or left out.
# How the values were obtained:
# Assay in all cases: log2 fold change, soluble protein after heating vs DMSO (PISA); higher = thermal stabilisation; K562 cells, 10 uM, 30 min; active = over 0.2 and 3.5 SD of the protein, either way, in both replicates (recomputed)
# [1] = compound: CC1=C(C=C(C=C1)NC(=O)C2=CC(=CC=C2)C(C)(C)C#N)NC3=CC4=C(C=C3)N=CN(C4=O)C
# In short: (§1)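 K562 cells at 2×10^6 cells/mL were given 10 μM compound for 30 min. Aliquots then went through 3 min of heating across 48°C-58°C, were pooled, and were extracted in PBS with 0.5% NP-40 at 4°C, and the supernatant after 21,000xg for 90 min was quantified by TMTpro 16plex LC-MS/MS with channel sums equalised. Thermal stability relative to control samples, from duplicates, is given as log2 fold change.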
# [2] = compound: CC1=C(C=C(C=C1)NC(=O)C2=CC(=CC=C2)N(C)C)NC(=O)C3=CC=C(C=C3)O
# In short: as §1
# [3] = compound: CC1=CC=C(C=C1)SC2=C3C=C(SC3=CN=C2)C(=O)N
# In short: as §1
# [4] = compound: CC1=NC(=CC=C1)C2=C(N=C(N2)C(C)(C)C)C3=CC4=NC=CN=C4C=C3
# In short: as §1
# [5] = compound: CCCCN(Cc1ccc(C(=O)NO)cc1)C(=O)Nc1ccccc1 [Nexturastat A]
# In short: as §1
# [6] = compound: CCCS(=O)(=O)Nc1ccc(F)c(C(=O)c2c[nH]c3ncc(-c4ccc(Cl)cc4)cc23)c1F [vemurafenib]
# In short: as §1
# [7] = compound: CCCS(=O)(=O)Nc1ccc(F)c(C(=O)c2c[nH]c3ncc(Cl)cc23)c1F
# In short: as §1
# [8] = compound: CCCc1cc(C)[nH]c(=O)c1CNC(=O)c1cc(-c2ccnc(N3CCN(C)CC3)c2)cc2c1cnn2C(C)C
# In short: as §1
# [9] = compound: CCN(CC)Cc1ccc2cc(COC(=O)Nc3ccc(C(=O)NO)cc3)ccc2c1 [givinostat]
# In short: as §1
# [10] = compound: CCN(CCCOc1ccc2c(Nc3cc(CC(=O)Nc4cccc(F)c4)[nH]n3)ncnc2c1)CCOP(=O)(O)O [barasertib]
# In short: as §1
# [11] = compound: CC[C@@H]1C(=O)N(C)c2cnc(Nc3ccc(C(=O)NC4CCN(C)CC4)cc3OC)nc2N1C1CCCC1
# In short: as §1
# [12] = compound: CC[C@@H]1C(=O)N(C)c2cnc(Nc3ccc(C(=O)N[C@H]4CC[C@H](N5CCN(CC6CC6)CC5)CC4)cc3OC)nc2N1C(C)C [volasertib]
# In short: as §1
# [13] = compound: CC[C@H](C)N1C=C(C2=C(C=C(C=C21)C3=CN=C(C=C3)N4CCNCC4)C(=O)NCC5=C(C=C(NC5=O)C)C)C
# In short: as §1
# [14] = compound: CC[C@H](C)[C@@H](C(=O)N[C@@H]([C@@H](C)O)C(=O)N[C@@H](CC(C)C)C(=O)[C@]1(CO1)C)NC(=O)[C@H]([C@@H](C)CC)N(C)C(=O)C [epoxomicin]
# In short: as §1
# [15] = compound: CCn1c(C(=O)N(C2CC2)C2CC2)cc2c3c(ncn3C)c(Nc3cc(C)n(C)n3)nc21
# In short: as §1
# [16] = compound: CCn1cc(-c2ccnc3[nH]c(-c4cccc(CN(C)C)c4)cc23)c(-c2ccc(NC(=O)N(C)C)cc2)n1
# In short: as §1
# [17] = compound: CN(C)CC(=O)Nc1ccc2[nH]c(=O)c3ccccc3c2c1
# In short: as §1
# [18] = compound: CN(CCOC1=CC=C(C=C1)C[C@H]2C(=O)NC(=O)S2)C3=CC=CC=N3 (racemic) [rosiglitazone]
# In short: as §1
# [19] = compound: CN1C2=C(C3=C1C(=O)N(N=C3)CC4=CC(=CC=C4)N)SC(=C2)S(=O)C
# In short: as §1
# [20] = compound: CN1CCC(CNc2ccc3ncc(-c4cccc(OC(F)(F)F)c4)n3n2)CC1
# In short: as §1
Target,log2 fold change [1],log2 fold change [2],log2 fold change [3],log2 fold change [4],log2 fold change [5],log2 fold change [6],log2 fold change [7],log2 fold change [8],log2 fold change [9],log2 fold change [10],log2 fold change [11],log2 fold change [12],log2 fold change [13],log2 fold change [14],log2 fold change [15],log2 fold change [16],log2 fold change [17],log2 fold change [18],log2 fold change [19],log2 fold change [20]
NAP1L4 isoform 2 (UniProt Q99733),inactive: -0.007,inactive: -0.009,inactive: -0.034,inactive: 0,inactive: -0.018,inactive: 0.015,inactive: 0.065,inactive: -0.004,inactive: -0.009,inactive: 0.023,inactive: -0.068,inactive: -0.185,inactive: 0.035,inactive: 0.085,inactive: 0.01,inactive: 0.008,inactive: 0.007,inactive: 0.008,inactive: -0.034,inactive: 0.054
NAA16 (UniProt Q6N069),inactive: 0.007,inactive: -0.029,inactive: -0.007,inactive: -0.02,inactive: -0.004,inactive: 0.008,inactive: -0.042,inactive: 0.069,inactive: 0.017,inactive: -0.021,inactive: 0.056,inactive: -0.09,inactive: 0.11,inactive: -0.011,inactive: -0.007,inactive: -0.059,inactive: -0.033,inactive: -0.022,inactive: 0,inactive: 0.123
NDRG2 (UniProt Q9UN36),inactive: 0.043,inactive: 0.001,inactive: 0.026,inactive: 0.019,inactive: -0.035,inactive: 0.026,inactive: 0.052,inactive: 0.019,inactive: 0.01,inactive: -0.015,inactive: -0.029,inactive: -0.11,inactive: 0.024,inactive: 0.064,inactive: 0.001,inactive: -0.041,inactive: 0.03,inactive: 0.026,inactive: -0.046,inactive: 0.115
NCS1 (UniProt P62166),inactive: 0.037,inactive: 0.072,inactive: 0.077,inactive: 0.03,inactive: -0.038,inactive: 0.041,inactive: 0.038,inactive: 0.001,inactive: -0.05,inactive: -0.021,inactive: -0.022,inactive: -0.039,inactive: 0.029,inactive: -0.035,inactive: 0.038,inactive: -0.013,inactive: 0.013,inactive: 0.017,inactive: -0.038,inactive: -0.029
NAT10 (UniProt Q9H0A0),inactive: 0.059,inactive: 0,inactive: -0.175,inactive: -0.132,inactive: 0.315,inactive: 0.035,inactive: -0.137,inactive: 0.155,inactive: 0.211,inactive: -0.012,inactive: 0.113,inactive: 0.337,inactive: 0.065,inactive: -0.167,inactive: -0.098,inactive: 0.04,inactive: -0.023,inactive: -0.109,inactive: 0.147,inactive: 0.129
NCAPH (UniProt Q15003),inactive: 0.02,inactive: -0.091,inactive: 0.013,inactive: 0.012,inactive: 0.09,inactive: 0.068,inactive: 0.065,inactive: 0.067,inactive: 0.238,inactive: 0.042,inactive: -0.126,active: -0.353,inactive: 0.051,inactive: 0.011,–,inactive: 0.052,inactive: 0.043,–,inactive: -0.021,inactive: -0.116
NANS (UniProt Q9NR45),inactive: 0.063,inactive: -0.02,inactive: 0.035,inactive: 0.007,inactive: -0.196,inactive: -0.001,inactive: 0.026,inactive: 0.007,inactive: -0.025,inactive: 0.01,inactive: 0.015,inactive: -0.013,inactive: 0.032,inactive: 0.016,–,inactive: -0.041,inactive: 0.009,–,active: -0.434,inactive: 0.034
NASP (UniProt P49321),inactive: 0.012,inactive: -0.033,inactive: 0,inactive: 0.009,inactive: -0.058,inactive: 0.037,inactive: 0.038,inactive: -0.006,inactive: 0.001,inactive: 0.027,inactive: -0.118,active: -0.277,inactive: 0.049,inactive: 0.046,–,inactive: -0.03,inactive: 0.004,–,inactive: -0.061,inactive: -0.051
